Test system: K-562 cells
Assay: Cell viability / growth inhibition (AlamarBlue), K-562
Format: cell-based
Settings: Homo sapiens, K562; Table 5; ± SD
Experimental: K562 and K562-T315I: The Leukemia cell lines K562 were purchased and maintained as recommended by ATCC (Manassas, VA, USA). Briefly, K562 cells were cultured in suspension in RPMI1640 (ThermoFisher Scientific, USA) supplemented with 10% fetal bovine serum and Pen/Strep/L-Glutamine. […] Briefly, one million K562 cells were seeded in 6-well plates and transfected with Lipofectamine 2000 and 1 μg of CRISPR/Cas9 vector (pSpCas9(BB)-2A-GFP) incorporating the guide sequence ([…]), and Lipofectamine RNAiMax and 4 μg of ssDNA donors (1ug of each donor, Supplementary Table 1) for each well of a 6-well plate.
The effects of the compounds on cell viability were evaluated using the AlamarBlue assay using the NCI60 methodology.^57 Cells were harvested and plated in 384-well plates (Greiner μClear) at a concentration of 1250 cells/well in 40 μL, and incubated for 24 h at 37° C. The next day, test compounds were added to the cells as a 2×40μL solution, and incubated for 48 h at 37° C.

Question: Which IC50 does the source give for `Cc1ccc(NC(=O)c2ccc(CN3CCN(C)CC3)cc2)cc1Nc1nccc(-c2cccnc2)n1` [Imatinib] here?
Answer: 563 nM

— patent US20240199626A1, “COMPOUNDS WITH IMPROVED CARDIAC SAFETY FOR THE TREATMENT OF CANCER AND NEURODEGENERATIVE DISORDERS” (priority 2021, published 2024)
